Binding data for one substance are collected here from PMC12069692, “Pharmacological inhibition of PLK1/PRC1 triggers mitotic catastrophe and sensitizes lung cancers to chemotherapy” (Cell Death & Disease, 2025).

Sequences of proteins named here, by UniProt entry; tags and fusion partners are left off.
UniProt O43663: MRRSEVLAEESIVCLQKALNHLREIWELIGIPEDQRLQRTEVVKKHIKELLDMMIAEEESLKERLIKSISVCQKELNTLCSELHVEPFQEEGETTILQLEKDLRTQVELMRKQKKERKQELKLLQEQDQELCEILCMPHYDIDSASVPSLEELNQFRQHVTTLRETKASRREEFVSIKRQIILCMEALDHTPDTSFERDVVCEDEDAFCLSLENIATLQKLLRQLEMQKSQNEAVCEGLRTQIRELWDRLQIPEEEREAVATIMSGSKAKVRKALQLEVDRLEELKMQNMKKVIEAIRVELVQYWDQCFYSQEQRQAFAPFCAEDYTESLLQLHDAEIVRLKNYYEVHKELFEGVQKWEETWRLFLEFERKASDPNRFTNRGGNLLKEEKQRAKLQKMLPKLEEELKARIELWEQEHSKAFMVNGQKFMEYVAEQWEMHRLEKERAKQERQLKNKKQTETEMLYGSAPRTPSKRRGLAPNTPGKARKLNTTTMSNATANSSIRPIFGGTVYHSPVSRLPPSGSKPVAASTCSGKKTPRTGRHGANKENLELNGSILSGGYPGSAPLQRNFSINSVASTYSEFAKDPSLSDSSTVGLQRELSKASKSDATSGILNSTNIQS
UniProt P53350: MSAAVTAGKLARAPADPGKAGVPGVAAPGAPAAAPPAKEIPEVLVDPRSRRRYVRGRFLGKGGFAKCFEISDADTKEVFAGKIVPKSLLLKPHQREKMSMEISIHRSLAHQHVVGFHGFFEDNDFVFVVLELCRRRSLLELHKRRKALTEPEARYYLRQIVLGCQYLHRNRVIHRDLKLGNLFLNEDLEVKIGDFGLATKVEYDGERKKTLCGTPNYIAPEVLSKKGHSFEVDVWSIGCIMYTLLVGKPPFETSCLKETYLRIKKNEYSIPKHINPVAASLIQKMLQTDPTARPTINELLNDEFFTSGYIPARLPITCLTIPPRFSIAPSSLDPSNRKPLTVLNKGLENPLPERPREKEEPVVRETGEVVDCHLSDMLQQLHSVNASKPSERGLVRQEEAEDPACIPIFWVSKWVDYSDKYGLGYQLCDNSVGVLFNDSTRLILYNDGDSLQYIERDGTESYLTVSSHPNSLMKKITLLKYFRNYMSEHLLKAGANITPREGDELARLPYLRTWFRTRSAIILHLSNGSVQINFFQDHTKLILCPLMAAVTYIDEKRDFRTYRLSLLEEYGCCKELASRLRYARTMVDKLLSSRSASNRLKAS

Results are given in words; binding and its absence hold for the method and conditions named. In cells and extracts the contact can be indirect. Some entries that bind do so weakly or less than the wild type.

For this test, the target named is protein regulating of cytokinesis (PRC1) (human (endogenous in A549/DDP)) (UniProt O43663). Put plainly: co-IP; lysates of A549/DDP cells, untreated or treated with B4 (6 uM, 48 h), immunoprecipitated with anti-PRC1-coupled agarose beads for 2 h; PLK1 detected in the eluate.

Regarding “Polo-like kinase 1 (PLK1) (from UniProt P53350 1-603)”, the binding result is “binds”.
